Test results from patent US6849596B1, “Regulatory/unfolding peptides of ezrin” (priority 1999, dated 2005).
“And” between values parts separate entries of the source, which are not always exact repeats. Identical values can stand only once. Part of at least one peptide drawing is inferred or uncertain, most often the ends. Where no end group is shown, it is not given here.

How the values were obtained:
Salmonella typhimurium = assay: Protection of mice from acute Salmonella typhimurium infection; format: in vivo; details: control 0%
Description: Laboratory mice (CBAxC57B1 F1 hybrids) were split into groups of five which either received 0.5 ml saline or 0.5 ml saline plus various concentrations of different Hepreceptor peptides (1, 10 or 100 nanograms). 24 hours later the mice were acutely infected with Salmonella typhimurium (10,000 or 100,000 bacteria injected intraperitoneally per mouse). The percent of each group of mice surviving after 20 days was recorded (lethally infected control animals were dead within three days of infection).
Percent of mouse group surviving after 20 days infection

HIV = assay: HEP1 trial: HIV infectivity assay by TCID (HIVp24); format: in vivo
[1] = system: herpes virus (VPG-1 strain L2); assay: Mouse lethal herpes virus infection model; format: in vivo, mice; details: Control 10
HIV antigens = assay: HEP1 trial: anti-HIV antibodies in plasma; format: in vivo, human; details: individual patients; end of one month treatment
[2] = system: opportunistic infections (Aspergillus, Candida, CMV, HSV1, HSV2, Toxoplasma); assay: HEP1 trial: antibody responses to opportunistic infections; format: in vivo, human

Sequence: TEKKRRETVEREKE [HEP1, TEKKRRETVEREKE]
- Percent of mouse group surviving after 20 days infection (Salmonella typhimurium; 10,000 bacteria per mouse, 1 nanogram peptide per mouse 24 hours before): 20%
- Percent of mouse group surviving after 20 days infection (Salmonella typhimurium; 10,000 bacteria per mouse, 10 nanograms peptide per mouse): 20%
- Percent of mouse group surviving after 20 days infection (Salmonella typhimurium; 10,000 bacteria per mouse, 100 nanograms peptide per mouse): 40%
- Percent of mouse group surviving after 20 days infection (Salmonella typhimurium; 100,000 bacteria per mouse, 1 nanogram peptide per mouse): 0%
- Percent of mouse group surviving after 20 days infection (Salmonella typhimurium; 100,000 bacteria per mouse, 10 nanograms peptide per mouse): 0%
- Percent of mouse group surviving after 20 days infection (Salmonella typhimurium; 100,000 bacteria per mouse, 100 nanograms peptide per mouse): 0%
- average maximum decline of virus levels below the pre-treatment baseline (HIV; Phase 1, printed as minus 80%): 80%
- average maximum increase of virus (HIV; Phase 2): 22 times
- average maximum decline of virus below the pre-treatment baseline (HIV; Phase 3, printed as minus 64%): 64%
- average survival time ([1]; 1 nanogram per mouse IP 48 and 24 hours before virus (3.5 LD50)): 18 days
- average survival time ([1]; 10 nanograms per mouse IP 48 and 24 hours before virus): 19 days
- average survival time ([1]; 100 nanograms per mouse IP 48 and 24 hours before virus): 27 days
- average survival time ([1]; 1000 nanograms per mouse IP 48 and 24 hours before virus): 28 days
- Anti gp41 antibody titre, re-based to 100 before treatment (HIV antigens): 93 and 110 and 131 and 274 and 111
- Anti gp120 antibody titre, re-based to 100 before treatment (HIV antigens): 216 and 127 and 110 and 160 and 93
- Anti p17 antibody titre, re-based to 100 before treatment (HIV antigens): 110 and 154 and 116
- Anti p24 antibody titre, re-based to 100 before treatment (HIV antigens): 97 and 146 and 507 and 245
- Anti-p31 antibody titre, re-based to 100 before treatment (HIV antigens): 157 and 71 and 387 and 813 and 147
- Aspergillus IgG, Max titre during treatment, re-based to 100 before treatment ([2]; individual patients P12-P76): 122 and 111 and 97 and 132 and 116 and 89 and 114 and 119 and 190
- CMV IgG, Max titre during treatment, re-based to 100 before treatment ([2]; individual patients P12-P76): 290 and 88 and 81 and 227 and 186 and 118 and 91 and 105 and 152
- CMV IgM, Max titre during treatment, re-based to 100 before treatment ([2]; individual patients P12-P76): 120 (2×) and 141 and 215 and 159 and 92 and 102 and 148
- Candida IgG, Max titre during treatment, re-based to 100 before treatment ([2]; individual patients P12-P76): 127 and 129 and 100 and 126 and 170 and 447 and 51 and 293 and 214 and 120
- HSV1 IgM, Max titre during treatment, re-based to 100 before treatment ([2]; individual patients P12-P76): 113 and 106 and 129 and 158 and 134 and 99 and 89 and 116 and 107
- HSV2 IgM, Max titre during treatment, re-based to 100 before treatment ([2]; individual patients P12-P76): 107 and 186 and 129 and 109 and 156 and 158 and 146 and 111 and 300
- Toxoplasma IgG, Max titre during treatment, re-based to 100 before treatment ([2]; individual patients P12-P76): 105 (2×) and 98 (2×) and 107 and 125 and 104 and 95
- average increase in antibody titre, Aspergillus IgG ([2]; patients P12-P76): 23%
- average increase in antibody titre, CMV IgG ([2]; patients P12-P76): 50%
- average increase in antibody titre, CMV IgM ([2]; patients P12-P76): 38%
- average increase in antibody titre, Candida IgG ([2]; patients P12-P76): 78%
- average increase in antibody titre, HSV1 IgM ([2]; patients P12-P76): 15%
- average increase in antibody titre, HSV2 IgM ([2]; patients P12-P76): 51%
- average increase in antibody titre, Toxoplasma IgG ([2]; patients P12-P76): 5%
